Experimental data: PubChem BioAssay AID1224830 (NIAID, 2016)
The whole screen tested about 18,000 reagents; shown is an unselected part. About 2,900 of all reagents (16%) were called active. 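Calls are made per well; low scores hint the gene aids the LPS response, high scores that it dampens it.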 Repeated entries: four replicate wells of each siRNA pool.

Screen: 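Regulators of TLR4 signalling towards TNF-alpha in macrophage-like cells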 (primary screen)
Cell system: human THP-1 monocytic leukaemia cells, TNF dual-luciferase reporter clone, PMA-differentiated to macrophage-like cells
Reagent: siRNA pool against human genes, 50 nM
Time to read-out: LPS for 4 h, given about 3 days after siRNA transfection
Challenge: bacterial LPS (TLR4 ligand), 10 ng/ml
Measurement: 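Ratio of firefly to renilla light, scaled to the plate median and expressed as a robust z-score per replicate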
Direction: TNF reporter robust z-score: higher = stronger TNF reporter response to LPS
Active means: 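a well is active when its z-score exceeds 2.8 or falls below -1.5; control wells carry no call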

gene symbol | TNF reporter robust z-score | Outcome
OR5B2 | -0.25 | inactive
OR5B2 | -0.14 | inactive
OR5B2 | -0.08 | inactive
CHD5 | 1.97 | inactive
CHD5 | 0.6 | inactive
CHD5 | 4.55 | active
CHD5 | -2.35 | active
CPEB2 | -0.05 | inactive
CPEB2 | 0.05 | inactive
CPEB2 | 0.8 | inactive
CPEB2 | 0.45 | inactive
SIAH2 | 0.4 | inactive
SIAH2 | -0.45 | inactive
SIAH2 | -1.95 | active
SIAH2 | 0.86 | inactive
CD200R1 | 0.47 | inactive
CD200R1 | 1.34 | inactive
CD200R1 | 2.65 | inactive
CD200R1 | 1.59 | inactive
TNFSF12 | -0.38 | inactive
TNFSF12 | 0.05 | inactive
TNFSF12 | -0.29 | inactive
TNFSF12 | 0.19 | inactive
UPF3A | 1.12 | inactive
UPF3A | 0.82 | inactive
UPF3A | 3.01 | active
UPF3A | 0.18 | inactive
RIMOC1 | -1 | inactive
RIMOC1 | -0.25 | inactive
RIMOC1 | -0.54 | inactive
RIMOC1 | -0.23 | inactive
ZNF639 | 0.55 | inactive
ZNF639 | -0.06 | inactive
ZNF639 | 0.45 | inactive
ZNF639 | 0.49 | inactive
UBR5 | -0.6 | inactive
UBR5 | -0.47 | inactive
UBR5 | -0.48 | inactive
UBR5 | -0.79 | inactive
GADD45A | 2.13 | inactive
GADD45A | 1.86 | inactive
GADD45A | 1.38 | inactive
GADD45A | 2.28 | inactive
ESRRB | -0.31 | inactive
ESRRB | 1.22 | inactive
ESRRB | 1.04 | inactive
ESRRB | 1.12 | inactive
ETV6 | -0.16 | inactive
ETV6 | 0.09 | inactive
ETV6 | -0.03 | inactive
ETV6 | 0.02 | inactive
CPT1B | -0.95 | inactive
CPT1B | -1.21 | inactive
CPT1B | -0.03 | inactive
CPT1B | 0.4 | inactive
HEYL | 0.48 | inactive
HEYL | 0.91 | inactive
HEYL | 0.46 | inactive
HEYL | 1.89 | inactive
ZC3H11D | 1.85 | inactive
ZC3H11D | 0.96 | inactive
ZC3H11D | -0.03 | inactive
ZC3H11D | 1.86 | inactive
MPV17 | 4.58 | active
MPV17 | 7.09 | active
MPV17 | 4.47 | active
MPV17 | 3.51 | active
SYNJ2BP | 4.02 | active
SYNJ2BP | 2.54 | inactive
SYNJ2BP | 4.12 | active
SYNJ2BP | 2.96 | active
EXOC3L2 | -0.92 | inactive
EXOC3L2 | -0.95 | inactive
EXOC3L2 | -1.41 | inactive
EXOC3L2 | -0.8 | inactive
CDNF | -1.2 | inactive
CDNF | 0.1 | inactive
CDNF | -1 | inactive
CDNF | 0.97 | inactive
VMA21 | 3.55 | active
VMA21 | 2.01 | inactive
VMA21 | -0.57 | inactive
VMA21 | 0.86 | inactive
ZNF607 | 3.36 | active
ZNF607 | 3.61 | active
ZNF607 | 2.41 | inactive
ZNF607 | 1.52 | inactive
PIWIL1 | -0.58 | inactive
PIWIL1 | -1.34 | inactive
PIWIL1 | -2.18 | active
PIWIL1 | -1.77 | active
SH3RF2 | -0.87 | inactive
SH3RF2 | 1.57 | inactive
SH3RF2 | -0.22 | inactive
SH3RF2 | 1.55 | inactive
SIMC1 | 1.09 | inactive
SIMC1 | 0.25 | inactive
SIMC1 | 0.3 | inactive
SIMC1 | 0.18 | inactive
PSMB10 | -0.76 | inactive
PSMB10 | 4.83 | active
PSMB10 | 0.21 | inactive
PSMB10 | 2.1 | inactive
SUMF1 | -1.05 | inactive
SUMF1 | -0.54 | inactive
SUMF1 | -0.86 | inactive
SUMF1 | -0.85 | inactive
ATP1B2 | -1.26 | inactive
ATP1B2 | -1.01 | inactive
ATP1B2 | -1.27 | inactive
ATP1B2 | -1.04 | inactive

Quoted from the listing (17 entries):
gene symbol | TNF reporter robust z-score | Outcome
CD200R1 | 0.47 | inactive
CD200R1 | 1.34 | inactive
CD200R1 | 2.65 | inactive
CD200R1 | 1.59 | inactive
TNFSF12 | -0.38 | inactive
TNFSF12 | 0.05 | inactive
TNFSF12 | -0.29 | inactive
TNFSF12 | 0.19 | inactive
UPF3A | 1.12 | inactive
UPF3A | 0.82 | inactive
UPF3A | 3.01 | active
UPF3A | 0.18 | inactive
RIMOC1 | -1 | inactive
RIMOC1 | -0.25 | inactive
RIMOC1 | -0.54 | inactive
RIMOC1 | -0.23 | inactive
ZNF639 | 0.55 | inactive
